The test deals with KRT19 (Cytokeratin 19) (human (endogenous in Huh7 and MHCC-97H)) (UniProt P08727). Briefly: co-IP; Protein A/G Sepharose with antibodies specific for KRT19, β-catenin and RAC1, or normal IgG; lysates of KRT19 positive Huh7 and MHCC-97H cells; Western blotting.

The chains behind the UniProt entries cited, without tags or fusion partners.
UniProt P08727: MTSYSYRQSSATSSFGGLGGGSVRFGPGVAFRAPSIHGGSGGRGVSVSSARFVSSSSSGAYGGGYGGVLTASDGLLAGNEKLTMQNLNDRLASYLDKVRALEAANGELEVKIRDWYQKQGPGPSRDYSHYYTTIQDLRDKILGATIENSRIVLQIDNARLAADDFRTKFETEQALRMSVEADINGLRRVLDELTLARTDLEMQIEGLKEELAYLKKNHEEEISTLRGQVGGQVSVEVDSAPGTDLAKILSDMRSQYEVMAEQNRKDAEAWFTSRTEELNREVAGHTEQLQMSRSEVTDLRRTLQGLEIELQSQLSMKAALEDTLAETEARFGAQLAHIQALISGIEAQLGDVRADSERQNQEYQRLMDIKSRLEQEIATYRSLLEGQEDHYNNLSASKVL
UniProt P35222: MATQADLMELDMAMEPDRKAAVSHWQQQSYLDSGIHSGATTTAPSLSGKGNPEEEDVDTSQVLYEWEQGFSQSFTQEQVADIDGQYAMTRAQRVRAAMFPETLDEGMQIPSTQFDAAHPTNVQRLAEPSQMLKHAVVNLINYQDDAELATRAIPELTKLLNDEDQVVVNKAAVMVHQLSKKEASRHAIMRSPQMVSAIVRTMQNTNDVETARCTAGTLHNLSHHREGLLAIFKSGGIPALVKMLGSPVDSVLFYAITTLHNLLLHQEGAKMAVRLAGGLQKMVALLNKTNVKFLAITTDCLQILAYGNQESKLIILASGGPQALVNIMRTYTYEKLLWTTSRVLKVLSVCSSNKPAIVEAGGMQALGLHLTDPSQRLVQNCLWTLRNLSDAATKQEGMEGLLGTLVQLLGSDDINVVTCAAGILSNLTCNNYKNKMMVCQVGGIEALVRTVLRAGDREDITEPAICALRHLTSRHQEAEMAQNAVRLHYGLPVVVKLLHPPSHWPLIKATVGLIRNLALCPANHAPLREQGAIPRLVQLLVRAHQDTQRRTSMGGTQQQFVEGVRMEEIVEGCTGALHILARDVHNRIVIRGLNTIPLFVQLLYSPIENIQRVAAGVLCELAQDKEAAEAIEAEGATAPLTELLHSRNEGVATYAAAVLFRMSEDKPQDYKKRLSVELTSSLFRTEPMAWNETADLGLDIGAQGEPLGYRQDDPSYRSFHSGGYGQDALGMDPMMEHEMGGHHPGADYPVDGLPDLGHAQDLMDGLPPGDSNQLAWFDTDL

No constants are given. Whether binding was seen depends on the method and setting. In cells and extracts the contact can be indirect. Some binding calls cover weakened binding; strength is not graded here.

Regarding β-catenin (from UniProt P35222 1-781), the binding entry is reported as “binds”.
